In paper PMC11814420:
No constants are given. Whether binding was seen depends on the method and setting. Binding seen in cells or lysates may run through a third protein. Some entries that bind do so weakly or less than the wild type.

Sequences of proteins named here, by UniProt entry; tags and fusion partners are left off. Residues count along the entry.
UniProt Q5VW38, residues 40-600: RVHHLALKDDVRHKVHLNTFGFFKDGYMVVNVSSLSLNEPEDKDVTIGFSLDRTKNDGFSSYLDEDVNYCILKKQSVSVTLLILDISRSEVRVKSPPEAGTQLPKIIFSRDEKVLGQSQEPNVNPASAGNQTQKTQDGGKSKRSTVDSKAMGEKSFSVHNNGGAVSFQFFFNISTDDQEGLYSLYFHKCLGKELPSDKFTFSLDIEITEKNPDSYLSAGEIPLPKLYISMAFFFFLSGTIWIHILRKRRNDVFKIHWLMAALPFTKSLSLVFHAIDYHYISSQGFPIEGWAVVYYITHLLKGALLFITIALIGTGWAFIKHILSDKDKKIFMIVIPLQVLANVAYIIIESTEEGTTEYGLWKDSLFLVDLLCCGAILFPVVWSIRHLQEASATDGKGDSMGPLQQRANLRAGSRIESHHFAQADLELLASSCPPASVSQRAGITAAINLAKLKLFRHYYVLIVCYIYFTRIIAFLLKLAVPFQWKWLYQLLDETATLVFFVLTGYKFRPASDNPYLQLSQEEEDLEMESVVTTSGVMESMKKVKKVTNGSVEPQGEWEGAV

What was measured:
[1] = target: Flag-tagged GPR107 (G protein-coupled receptor 107) (UniProt Q5VW38); assay: co-IP; two tagged proteins co-expressed in HPC (Flag-GPR107 with His-AT1R, or with HA-clathrin); co-IP and immunoblotting with antibodies against the tags or the proteins
[2] = target: endogenous angiotensin II receptor type 1 (AT1R) (human (endogenous in HPC)) (UniProt P30556); assay: co-IP; endogenous proteins of HPC immunoprecipitated with an anti-AT1R antibody, then immunoblotting
[3] = target: Flag-tagged GPR107 (G protein-coupled receptor 107) (UniProt Q5VW38); assay: co-IP; Flag-tagged GPR107 expressed in HPC cells and used for the co-IP; endogenous partners detected by immunoblotting

With “His-tagged AT1R (from UniProt P30556 1-359) (receptor)” the binding [1] was “binds”.

With “endogenous GPR107 (from UniProt Q5VW38 40-600) (receptor)” the binding [2] was “binds”.

With “endogenous angiotensin II receptor type 1 (AT1R) (from UniProt P30556 1-359)” the binding [3] was “binds”.
